At least one structure is not confirmed: it was looked up by name or label, or the drawing left a doubt. Some compounds share one wording; it may come from a single statement.
Target: T1, R120G cryAB (Homo sapiens, UniProt P02511, R120G)
T1 sequence (P02511 1-175 R120G): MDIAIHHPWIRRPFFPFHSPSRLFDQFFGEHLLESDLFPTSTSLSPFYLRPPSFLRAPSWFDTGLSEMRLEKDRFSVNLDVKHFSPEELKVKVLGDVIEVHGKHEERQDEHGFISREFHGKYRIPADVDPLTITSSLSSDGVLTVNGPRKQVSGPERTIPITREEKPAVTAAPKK
Assay: Differential scanning fluorimetry (DSF), shift of apparent Tm
Assay type: binding
Settings: 100 μM compound; DSF with R120G cryAB
Experimental: Differential scanning fluorimetry (DSF) was utilized to identify compounds that stabilize cryAB. In DSF experiments, the melting transition (Tm) of the protein target is measured in the presence of potential ligands (Cummings et al., J Biomol Screen 11, 854 (2006). DSF measures thermal unfolding of the target protein via the fluorescence of intrinsic tryptophans, or (more commonly) a dye, such as 1,8-anilinonapthalenesulfonic (bis-ANS) or Sypro Orange. Binding of a ligand adds free energy to the folded state or key intermediates, which limits unfolding and shifts the apparent Tm. These values are used to calculate the unfolding transition. When compounds bind to the target prior to heating, they stabilize against unfolding, shifting the ΔTm. […] (3).

With `C[C@]12CCC(=O)C=C1CC[C@@H]1[C@@H]2CC[C@]2(C)C(=O)CC[C@@H]12` [D4-androsten-3,17-dione] the “ACTIVITY (shift in thermal stability at 100 μM)” value was “between +1 °C and −1 °C”.

In the case of `CC(=O)[C@H]1CC[C@H]2[C@@H]3CC=C4C[C@@H](O)CC[C@]4(C)[C@H]3CC[C@]12C` [D5-pregnen-3b-ol-20-one], the “ACTIVITY (shift in thermal stability at 100 μM)” value is reported as “between +1 °C and −1 °C”.

With `CC(C)CCC[C@@H](C)[C@H]1CC[C@H]2[C@@H]3C(=O)C=C4C[C@@H](O)CC[C@]4(C)[C@H]3CC[C@]12C` [5-cholesten-3b-ol-7-one] the “ACTIVITY (shift in thermal stability at 100 μM)” value was “between +1 °C and −1 °C”.

— patent US9675623B2, “Non-surgical method of treatment for cataract” (THE REGENTS OF THE UNIVERSITY OF MICHIGAN, priority 2012, dated 2017)
